The whole screen tested about 52,000 sequences, of which about 210 (0.4%) were called active.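 How the source made its calls: active means gene whose silencing raises cell survival under the drug, median off-target-corrected z-score across its silencing RNAs 2 or more; inactive means the rest.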 This is one part of the list.
Test: Resistance to Poly (ADP-Ribose) Polymerase inhibitor: Gene Identification via Genome-wide siRNA Screen
Settings: mouse BRCA2 R2336H ES cells, olaparib, CellTiter-Glo viability; stronger effect = higher value
Procedure, shortened: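 Genome-wide siRNA screen (3 siRNAs/gene, 20 nM) in mouse ES cells carrying hypomorphic BRCA2 R2336H; olaparib 500 nM added 48 h post-transfection, CellTiter-Glo viability 72 h later. Normalized to plate-median negative control; MAD z-scores, gene median, seed-adjusted.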

Sequence | z-score
CCAAAGUGUUCCAAAAUCATT against A530054K11Rik | inactive: 1.01
GGAAGAGGAGGAAAACUUGTT against 1700010C24Rik | inactive: 1.66
GGAUGGCUUUGGAGAACACTT against Sat1 | inactive: -1.08
GGGAACUUUUUUGAUGGGCTT against Psmb2 | inactive: -2.95
GGCAUAUGUCAAUUUGUUATT against Ntsr1 | inactive: 0.888
CCUCAAAAAGUGGGAUGAGTT against Gnpat | inactive: -0.521
GGUCACUGAACCUAUUUCCTT against Arhgap15 | inactive: -0.118
CCAGACAAUCUUUCACUGCTT against Gstm6 | inactive: 0.269
GGAAAGAAGGGAUUAUCCATT against Faim | inactive: 0.233
GGGUUCAGCAUACCCUUCATT against V1re6 | inactive: -0.586
GCUCCAGUAUCAAAUCGCUTT against Frmd3 | inactive: 0.0169
GGGUGAUCCAGGUUUGCCATT against Sftpd | inactive: 0.398
CCGCGUGUGCUCCUUUUUGTT against Zcchc3 | inactive: -0.259
GGGUUAUGAAGACAAACCATT against 2610204L23Rik | inactive: -0.145
GGAUCAUCUUCUUUGGGUCTT against Aig1 | inactive: 0.934
GGUCUAUCGUUAUUUGAUATT against Man1a | inactive: 1.11
GGAAAAUAAGUUGUCUGUCTT against Olfr120 | inactive: -2.4
GGAAGUGUGCUUUCUUUCCTT against C130086A10 | inactive: -0.422
GCAGACUCAUGCACUUGAATT against Olfr1165 | inactive: 2.18
GCCCUCAUACCUACUAUGUTT against 4631405J19Rik | inactive: 1.74
GGGAAGCCUUACUUAUUGGTT against V1rb3 | inactive: -0.658
GCAACCGAAGAAUGUUUACTT against C330008L01Rik | inactive: 0.323
GGCCUGCGUUCAGAAGAGUTT against Wrn | inactive: 0.0774
GGCCAUCUAAUGACCUUCATT against Madd | inactive: -1.39
GGUUUUCUUUCCUUCUUGGTT against Abcd4 | inactive: -0.269
CCUGAAGAUUUUAUGGACGTT against Gpatc1 | inactive: 0.529

Reprinted at random: 4 records from the list
Sequence | z-score
GCAGACUCAUGCACUUGAATT against Olfr1165 | inactive: 2.18
GGGUUAUGAAGACAAACCATT against 2610204L23Rik | inactive: -0.145
GGAAGAGGAGGAAAACUUGTT against 1700010C24Rik | inactive: 1.66
GGUUUUCUUUCCUUCUUGGTT against Abcd4 | inactive: -0.269

Additional results

Sequence | z-score
GGAAGAUGCACAUCUGGACTT against 2310057D15Rik | inactive: 0.28
GGCCUACCUAUAGAAAUGATT against D230012E17Rik | inactive: 0.914
GGAUGUCGAGACCAUAAUCTT against Clcn5 | inactive: -0.363
GGAUGAUCUGGUCCUUUUGTT against Stx17 | inactive: -0.268
CCCUAGGCCUACCUAAUGATT against 2900055D14Rik | inactive: -2.84
GGCUAUGUCUGUUUCCUUUTT against Defcr-rs10 | inactive: 0.844
GGAAGGACCAAAGCUUUCUTT against Olfr1123 | inactive: 0.0121
GGAGAAUGGUCUUAGGUUUTT against 2410129E14Rik | inactive: 0.245
CGAACAACUUGAAGUCACUTT against Tpm1 | inactive: -0.916
GGUUGUUUUCCCUAGGGUGTT against Sema6a | inactive: -0.681
GGUCAAAAUUUCCAAACUCTT against Gpr34 | inactive: 0.592
CGGUGCAUCCAAAUUCACATT against LOC434377 | inactive: 0.557
CCGUUUUUAAAGCGGGCCATT against BC023818 | inactive: 0.681
GGAUGUGGUGGAAGAUUUCTT against Krt2-7 | inactive: 1.55
GGAUAUCACCUUCGAGAUATT against 4930532L20Rik | inactive: 0.987
GGUCCUAAUUCGAAGCAGATT against 0610039A15Rik | inactive: -1.88
GGUGGAGUUAACGAGAAACTT against Cyr61 | inactive: 0.139
GCACCAAAACAGGAAUUACTT against Fibp | inactive: 0.573
GGUUUACAGCAUCAUUAAATT against Shmt1 | inactive: 1.2
CCUCGCAUAAUUAAUUGUUTT against Prdm8 | inactive: 0.281
GCGAUCAAAAUUGUGUCACTT against A730017C20Rik | inactive: 1.12
GCCAGACUGGAGGUAAAAUTT against Serpinb10 | inactive: 0.717
CCUCCAGAGUAUUGUCUAGTT against 2410127E16Rik | inactive: -2.53
GGUUUUUCAGCUUUGGAACTT against Decr1 | inactive: 0.315
GGACACAUUCAUCUUAACATT against Twistnb | inactive: -1.22
GGCCAAGGAUAUUCAGUAUTT against Timp4 | inactive: 1.07

Sequence | z-score
CCAGGUUCUGUUGAGAAUCTT against Irak1bp1 | inactive: -1.68
GGUGCCAUCCCAAACUUUATT against Frat2 | inactive: -1.02
GGUGGAUGAUAAUGUUCUUTT against Gcnt3 | inactive: -0.466
GGAGUUUAGUGACGAUGUGTT against Zfp46 | inactive: -1.22
CGAAUUUUGGAGAUGUAUGTT against 4632434I11Rik | inactive: 0.365
CCAUCCAUAUGAACUAUGATT against Slc30a4 | inactive: 0.431
GCUGGCUUUAAAAAUAUCUTT against C630002B14Rik | inactive: 0.461
GCGCGUCUAAAGCCGUAAATT against Hist1h1c | inactive: -0.274
GGUAAAAUGAUCCUUAGAATT against Pcdh15 | inactive: 0.84
GGAAGGCAACUCUUAGAAUTT against Olfr491 | inactive: 0.368
CCAGUAUGUACCACUAAGUTT against 4931440N07Rik | inactive: 0.862
GGAAGAUUAUCUCUUUUGATT against Olfr1214 | inactive: -0.216
GGAAGACAUGAAAUUGUUCTT against Psma3 | inactive: -2.92
GGAGAAUGGCAUUUUUGAGTT against Pkp3 | inactive: 0.219
GGGUCAGAUGGUACCAAGATT against Adamts18 | inactive: -1.17
GACGUGAUCUGCUUUUACUTT against AI428855 | inactive: -0.385
GGAGAAGCCCUGAAUGAAGTT against Pik3c2g | inactive: -1.5
GGAUGAUCCACCGUCAAAATT against Il9 | inactive: 1.85
GGCAGUCGAUUUAUAACUCTT against Clic5 | inactive: -0.409
GGGAGCGGAGCAAACAUAATT against Olfr1370 | inactive: 0.384
CCCUAGAUGAGAAUCAUAGTT against Jarid1c | inactive: 1.17
GGCUGACAAGGAGAGCUUCTT against Pim3 | inactive: 0.74
CCUCAGGGAAACUAUGUGUTT against E030006K04Rik | inactive: -0.221
CCUAAAGUCCUUAGUCACATT against Zfp397 | inactive: 0.328
GGCUCUGGAAAAGAACAACTT against Sds | inactive: 2.11
GGCCUUGGCAUCUAUUUAUTT against Tcf12 | inactive: 0.0849

Sequence | z-score
GCUAAGGUCUGUUAAACGCTT against Hyal3 | inactive: 0.137
GCUGAUGAAGGUGAUACGUTT against Pnma2 | inactive: 0.0302
CCUGUAUCCGUGACUUUUGTT against C230094B15Rik | inactive: 0.278
GGAGUUUCAUCCUACCAACTT against Nodal | inactive: -0.528
CCUGACAGCACUUUGUGGATT against 9330140K16Rik | inactive: 1.12
GUCCCUCUCUUCUUGGUGUTT against Olfr74 | inactive: -1.65
CGUAAGACGGAUGUACAUCTT against 2310010M20Rik | inactive: -0.284
GGACAGAAUUUUACCCUAATT against Odz3 | inactive: -1.82
CCCGGCCAUCUACACUUAUTT against Gpr6 | inactive: -0.608
GGAGACUGUCAGAAAGUUATT against Olfr1164 | inactive: -1.82
GCAAGAGUGAGAAUAUGUCTT against Fadd | inactive: -0.159
GGUACUACACCUUUGAUGATT against Fibp | inactive: 0.252
GAUCCGUUGGGAAAAGAACTT against Ssbp4 | inactive: -0.39
GGGUGACAACGGUUCUUACTT against 6430529G09Rik | inactive: -1.66
GGUGGUGUAAUCAAAUGUATT against Vps24 | inactive: -0.977
GGAAAUUUUCCAUCAUGAATT against Scn8a | inactive: 1.27
GCAAUGGACUACUGCUGCUTT against Olfr704 | inactive: -2.16
CGAUGAUCGGCUCAACAAGTT against Rplp2 | inactive: -1.57
GGACUUACUGCUAAGAGCUTT against Stx8 | inactive: -0.77
GGCACGCAUAUUCAACGAATT against Copg2 | inactive: 0.693
CCUUGUUACUAUACUACACTT against Ppp1r2 | inactive: -0.562
GGAAAUAUGGCAAGAAUUUTT against Rgs7 | inactive: 0.896
GGUGGACAGGAGAAAGGAATT against Npy6r | inactive: -1.34
GGUGGUCCUUCCCUAAAGATT against Il11 | inactive: 1.1
GGCUAAGCUGAAGAAGCACTT against 2310046O06Rik | inactive: -1.34
GGAAGUUAAAACCCUACUUTT against Trh | inactive: -1.28

Single entries from the results shown.
GUCCCUCUCUUCUUGGUGUTT against Olfr74 – z-score: inactive: -1.65
GGAGUUUCAUCCUACCAACTT against Nodal – z-score: inactive: -0.528
